Results taken from patent WO2016075546A2.
No constants are given. Whether binding was seen depends on the method and setting. Some binding calls cover weakened binding; strength is not graded here.

Columns and labels:
[1] = target: ZEBOV GP protein (coated, ELISA) (Zaire ebolavirus (ZEBOV)) (UniProt Q05320); assay: ELISA cross-competition on GP-coated plates
[2] = target: ZEBOV GP protein (coated, ELISA) (Zaire ebolavirus (ZEBOV)) (UniProt Q05320); assay: ELISA titration on coated GP
[3] = target: EBOV GP expressed on the surface of MDCK-SIAT cells (Ebola virus (EBOV)) (UniProt Q05320); assay: FACS, serial dilutions on MDCK-SIAT cells expressing EBOV GP

B1: EVB114 (parental EVB114 antibody) (antibody, V domains shown)
VH: EVQLVESGGGLIQPGGSLRLSCAASGFALRMYDMHWVRQTIDKRLEWVSAVGPSGDTYYADSVKGRFAVSRENAKNSLSLQMNSLTAGDTAIYYCVRSDRGVAGLFDSWGQGILVTVSS
VL: DIQMTQSPSSLSASVGDRITITCRASQAFDNYVAWYQQRPGKVPKLLISAASALHAGVPSRFSGSGSGTHFTLTISSLQPEDVATYYCQNYNSAPLTFGGGTKVEIK
With B1 the binding [1] was “binds”, the binding [2] was “binds” and the binding [3] was “binds”.

B2: EVB165 (antibody, V domains shown)
VH: DVQLVESGGGVVQPGGSLKLACVVSGFRFSDYWMSWVRQAPGKGLEWVANIKQDGSGKYYVDSVKGRFTVSRDNAKNSLYLHMTSLGAEDTAVYFCARAAPTGSYTNILVDNVHFDYWGQGILVAVSS
VL: GIQLTQSPGSLSASVGDSVTITCRPNQNIATYINWYQQTPGKAPKLLIYAASILQSGVPSRFSGAGSGTHFTLIISTLQPEDSATYYCQQSYSTPWTFGQGTKVEIK
With B2 the binding [2] was “binds”.
